Assay results taken from PMC8653610.
These are yes or no findings as the source states them, for the method shown. In cells and extracts the contact can be indirect. Some binding calls cover weakened binding; strength is not graded here.

Sequences of proteins named here, by UniProt entry; tags and fusion partners are left off. A change or cut given only in a name is not applied to a line headed by its entry.
UniProt P67809: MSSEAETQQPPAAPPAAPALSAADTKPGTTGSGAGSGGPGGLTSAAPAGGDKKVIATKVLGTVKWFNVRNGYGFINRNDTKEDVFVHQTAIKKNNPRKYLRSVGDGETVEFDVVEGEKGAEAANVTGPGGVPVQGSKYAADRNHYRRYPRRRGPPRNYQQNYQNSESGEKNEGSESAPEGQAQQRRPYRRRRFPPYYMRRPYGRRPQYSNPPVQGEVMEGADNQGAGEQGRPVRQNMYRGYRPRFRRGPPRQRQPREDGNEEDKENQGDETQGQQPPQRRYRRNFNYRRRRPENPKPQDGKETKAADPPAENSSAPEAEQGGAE
UniProt Q09472: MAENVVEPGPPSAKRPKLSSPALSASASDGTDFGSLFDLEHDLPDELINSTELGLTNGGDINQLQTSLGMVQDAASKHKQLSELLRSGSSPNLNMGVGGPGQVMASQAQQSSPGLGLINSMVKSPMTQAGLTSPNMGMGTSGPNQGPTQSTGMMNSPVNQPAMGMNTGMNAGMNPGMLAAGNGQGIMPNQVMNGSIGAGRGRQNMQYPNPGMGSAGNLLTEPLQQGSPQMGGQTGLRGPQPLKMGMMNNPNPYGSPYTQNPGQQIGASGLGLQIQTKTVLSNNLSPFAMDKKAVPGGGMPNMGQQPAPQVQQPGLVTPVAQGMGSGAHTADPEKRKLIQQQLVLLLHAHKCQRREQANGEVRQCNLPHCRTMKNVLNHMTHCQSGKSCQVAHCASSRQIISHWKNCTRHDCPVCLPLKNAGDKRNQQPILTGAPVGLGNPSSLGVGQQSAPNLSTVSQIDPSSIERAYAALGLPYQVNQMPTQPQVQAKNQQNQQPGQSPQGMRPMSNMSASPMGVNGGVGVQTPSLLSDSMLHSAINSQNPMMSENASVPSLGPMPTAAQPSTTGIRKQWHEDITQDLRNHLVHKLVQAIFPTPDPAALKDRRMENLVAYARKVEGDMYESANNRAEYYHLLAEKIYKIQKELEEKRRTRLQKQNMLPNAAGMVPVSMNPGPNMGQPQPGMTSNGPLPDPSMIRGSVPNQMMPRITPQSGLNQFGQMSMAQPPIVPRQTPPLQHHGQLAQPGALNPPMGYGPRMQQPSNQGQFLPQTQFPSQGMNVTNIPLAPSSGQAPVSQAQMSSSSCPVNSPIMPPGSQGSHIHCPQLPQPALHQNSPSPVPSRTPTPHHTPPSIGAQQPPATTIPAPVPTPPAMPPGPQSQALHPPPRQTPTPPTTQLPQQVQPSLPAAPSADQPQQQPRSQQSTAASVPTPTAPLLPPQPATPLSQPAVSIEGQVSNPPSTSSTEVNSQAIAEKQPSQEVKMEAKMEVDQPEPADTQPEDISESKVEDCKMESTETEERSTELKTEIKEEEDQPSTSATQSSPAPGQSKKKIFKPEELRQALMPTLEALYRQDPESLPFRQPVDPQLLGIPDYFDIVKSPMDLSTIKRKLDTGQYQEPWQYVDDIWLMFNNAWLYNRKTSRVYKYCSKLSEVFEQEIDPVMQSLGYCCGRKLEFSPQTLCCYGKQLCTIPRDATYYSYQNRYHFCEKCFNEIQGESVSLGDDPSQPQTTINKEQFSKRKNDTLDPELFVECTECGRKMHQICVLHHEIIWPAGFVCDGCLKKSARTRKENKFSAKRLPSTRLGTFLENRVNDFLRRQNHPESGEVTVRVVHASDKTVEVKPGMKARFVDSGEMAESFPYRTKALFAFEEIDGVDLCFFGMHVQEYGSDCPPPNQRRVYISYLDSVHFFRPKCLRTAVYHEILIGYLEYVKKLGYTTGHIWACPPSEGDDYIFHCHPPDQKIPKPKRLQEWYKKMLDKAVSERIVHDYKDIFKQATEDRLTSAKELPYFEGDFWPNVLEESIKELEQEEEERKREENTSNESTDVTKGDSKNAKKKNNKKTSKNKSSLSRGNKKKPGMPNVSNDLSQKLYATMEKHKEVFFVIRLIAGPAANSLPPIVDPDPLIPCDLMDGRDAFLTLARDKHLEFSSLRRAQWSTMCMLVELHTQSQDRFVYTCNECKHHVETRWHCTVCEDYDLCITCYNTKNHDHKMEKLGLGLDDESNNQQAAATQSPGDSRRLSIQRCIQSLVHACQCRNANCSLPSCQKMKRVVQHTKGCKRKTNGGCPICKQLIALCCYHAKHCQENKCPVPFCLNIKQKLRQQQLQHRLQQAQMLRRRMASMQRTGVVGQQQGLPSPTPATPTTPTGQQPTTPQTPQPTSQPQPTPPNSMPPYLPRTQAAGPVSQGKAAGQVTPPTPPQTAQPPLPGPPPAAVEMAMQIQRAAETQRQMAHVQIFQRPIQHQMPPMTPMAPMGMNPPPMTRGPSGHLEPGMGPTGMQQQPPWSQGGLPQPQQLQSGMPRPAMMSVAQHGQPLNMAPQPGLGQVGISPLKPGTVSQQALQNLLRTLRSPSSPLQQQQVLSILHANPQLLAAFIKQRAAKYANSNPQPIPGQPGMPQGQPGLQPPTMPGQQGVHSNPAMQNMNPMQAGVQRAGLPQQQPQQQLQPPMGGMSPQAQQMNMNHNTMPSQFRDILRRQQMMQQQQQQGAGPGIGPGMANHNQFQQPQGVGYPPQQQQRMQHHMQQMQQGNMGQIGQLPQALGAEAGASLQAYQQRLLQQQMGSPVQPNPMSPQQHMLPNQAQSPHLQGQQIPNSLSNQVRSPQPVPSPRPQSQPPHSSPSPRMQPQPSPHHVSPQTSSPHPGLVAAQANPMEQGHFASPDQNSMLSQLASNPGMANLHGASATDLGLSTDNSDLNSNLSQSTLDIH

Target: Y-box binding protein-1 (YB-1) (human (endogenous in BeWo)) (UniProt P67809)
Test: co-IP; in the nucleus of BeWo cells, control and caffeine-treated groups; protein incubated with 1 ug p-JNK or YB-1 antibody overnight, protein A/G agarose beads 4 h, western blotting

binding: binds
Substance: E1A binding protein P300 (P300) (from UniProt Q09472 1-2414) (enzyme)
